{"sequences": {"note": "Amino acid sequences for entries named in this document (tags omitted).", "UniProt P53350, whole entry, looked up": "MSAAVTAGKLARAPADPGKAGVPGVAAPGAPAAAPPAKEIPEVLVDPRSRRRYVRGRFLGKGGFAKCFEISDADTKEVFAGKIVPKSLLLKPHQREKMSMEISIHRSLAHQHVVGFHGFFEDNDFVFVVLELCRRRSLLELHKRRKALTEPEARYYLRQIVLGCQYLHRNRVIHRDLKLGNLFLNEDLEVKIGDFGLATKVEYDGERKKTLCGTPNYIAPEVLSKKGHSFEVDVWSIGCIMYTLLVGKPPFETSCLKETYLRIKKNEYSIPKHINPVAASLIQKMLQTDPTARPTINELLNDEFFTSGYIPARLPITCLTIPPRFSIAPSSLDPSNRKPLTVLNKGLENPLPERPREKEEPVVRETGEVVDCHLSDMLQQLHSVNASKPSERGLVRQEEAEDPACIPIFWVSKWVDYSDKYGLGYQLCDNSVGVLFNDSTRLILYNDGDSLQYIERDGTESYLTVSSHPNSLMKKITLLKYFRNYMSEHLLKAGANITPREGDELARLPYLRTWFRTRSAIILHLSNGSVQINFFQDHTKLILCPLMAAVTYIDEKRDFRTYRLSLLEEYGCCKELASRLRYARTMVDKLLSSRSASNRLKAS"}, "source": "PubChem BioAssay AID720504", "about": "(National Center for Advancing Translational Sciences (NCATS), 2013)", "note": "About 10,000 (2.8%) of roughly 360,000 compounds were called active. Inconclusive means that the source gave no clear call. Such entries were picked first, then a sample of the others. Calls come from the whole dose curve; as a rule, active = well fitted inhibition curve with a large enough effect; inconclusive = small, poorly fitted or top-dose-only effect; inactive = flat fitted curve, though single readings scatter. Where the call is inconclusive, the potency comes from a doubtful curve fit. % is set by controls: 0 for no effect and ±100 for the full control effect; potency is the fitted concentration of half-maximal effect.", "data": [{"biological_target": "Serine/threonine-protein kinase PLK1 (Homo sapiens) (UniProt P53350)", "experiment": "qHTS for Inhibitors of PLK1-PDB (polo-like kinase 1 - polo-box domain): Primary Screen; note: nearly all actives have a fitted effect of over 65% in size; for max response, negative = inhibition: series mostly up to about 57 µM", "conditions": "Plk1 PBD binding of FITC phosphopeptide, fluorescence polarization", "values": [{"smiles": "C/C(Cl)=C\\Cn1c(NCCc2ccccc2)nc2c1c(=O)n(C)c(=O)n2C", "Potency": "inconclusive: 37.7 µM [inhibitor, single point]"}, {"smiles": "CCS(=O)(=O)N1CCN(c2cc3c(cc2[N+](=O)[O-])n(C)c(=O)n3C)CC1", "max response, negative = inhibition": "inconclusive: -34.5% [inhibitor]"}, {"smiles": "CCOC(=O)C(=Cc1ccc(N(C)C)cc1)C(=O)c1ccccc1", "max response, negative = inhibition": "inactive: 3.86%"}, {"smiles": "CCC[n+]1c(C)sc2c3c(ccc21)CCCC3", "Potency": "inconclusive: 18.9 µM [inhibitor, partial curve]"}, {"smiles": "CC(C)CC(C)NNC(=O)c1cc2ccccc2[nH]1", "note": "(stereo unspecified)", "max response, negative = inhibition": "inactive: 1.43%"}, {"smiles": "O=C(O)CCN1C(=O)CC(N2C(=O)/C(=C/c3ccc(Cl)cc3)SC2=S)C1=O", "note": "(stereo unspecified)", "Potency": "active: 23.8 µM"}, {"smiles": "CC(=O)OCCOc1nc(NC(C)C)nc(NC(C)C)n1", "Potency": "active: 29.9 µM"}, {"smiles": "O=S(=O)(O)c1cccnc1SCc1ccccc1", "max response, negative = inhibition": "inconclusive: -35.2% [inhibitor]"}, {"smiles": "CCc1cc2c(cc3c(=O)n(CC(=O)N4CCN(C)CC4)ncn32)s1", "Potency": "active: 21.2 µM"}, {"smiles": "CN(C)c1ccc(CN(Cc2ccco2)C(=O)c2ccco2)cc1", "Potency": "active: 23.8 µM"}, {"smiles": "O=C(O)c1ccc(Cl)c(S(=O)(=O)N(Cc2ccccc2)c2ccccc2Cl)c1", "Potency": "inconclusive: 37.7 µM [inhibitor, single point]"}, {"smiles": "CCc1n(CC(O)COCC2CC=CCC2)c2ccccc2[n+]1C", "note": "(stereo unspecified)", "max response, negative = inhibition": "inactive: -22.5%"}, {"smiles": "CC1(C)CC(N2CCN(C(c3ccccc3)c3ccccc3)CC2)=CC(=[N+]2CCCCC2)C1", "max response, negative = inhibition": "inconclusive: -31.3% [inhibitor]"}, {"smiles": "O=C1c2cccc3cccc(c23)C(=O)C1(O)O", "Potency": "inconclusive: 8.44 µM [inhibitor, partial curve]"}, {"smiles": "CNC(=O)Nc1ccc2nc(C)sc2c1", "Potency": "inconclusive: 26.7 µM [inhibitor, single point]"}, {"smiles": "Cc1ccc(C)c(NC(=O)CN(C)C(=O)c2cccc(-n3cccc3)c2)c1", "Potency": "inconclusive: 23.8 µM [inhibitor, partial curve]"}, {"smiles": "O=C(NCc1ccco1)c1c2c(nc3ccccc13)CCC2", "Potency": "active: 2.99 µM"}, {"smiles": "Cc1cccc(-n2nnnc2-c2cnccc2C(F)(F)F)c1C", "Potency": "inconclusive: 21.2 µM [inhibitor, partial curve]"}, {"smiles": "O=C(CCN1C(=O)/C(=C\\C=C\\c2ccccc2)SC1=S)Nc1ccc(C(=O)O)cc1", "Potency": "active: 23.8 µM"}, {"smiles": "COC(=O)c1ccc(CSc2ncn[nH]2)o1", "max response, negative = inhibition": "inactive: -5.25%"}, {"smiles": "Cc1ccc(S(=O)(=O)N2C[C@H]3[C@H]4C(=O)N(c5ccccc5)C(=O)[C@H]4C[C@H](OC(=O)Nc4c(C)noc4C)[C@@]3(O)C2)cc1", "Potency": "inconclusive: 75.2 µM [inhibitor, partial curve]"}, {"smiles": "CNC(=O)NC(=O)CSc1ncc(C(F)(F)F)cc1Cl", "max response, negative = inhibition": "inactive: 5.39%"}, {"smiles": "O=S(=O)(Nc1ncccn1)c1ccc(NC(=S)Nc2ccc(Cl)cc2)cc1", "Potency": "inconclusive: 29.9 µM [inhibitor, partial curve]"}, {"smiles": "O=C(O)CC1C(=O)NCCN1C/C=C/c1ccccc1", "note": "(stereo unspecified)", "max response, negative = inhibition": "inactive: -1.85%"}, {"smiles": "S=C(c1ccc(N2CCOCC2)cc1)N1CCOCC1", "Potency": "active: 26.7 µM"}, {"smiles": "O=C(O)c1cc(S(=O)(=O)Nc2ccc3oc(=O)sc3c2)ccc1O", "Potency": "active: 6.7 µM"}, {"smiles": "CC(=O)Nc1ccc2oc(C)nc2c1", "max response, negative = inhibition": "inactive: -4.79%"}, {"smiles": "CC(=O)c1sc(N/N=C\\c2c(O)ccc3ccccc23)nc1C", "max response, negative = inhibition": "inactive: 23.9%"}, {"smiles": "O=C(O)CCN1C(=O)C2C3c4ccccc4C(c4ccccc43)C2C1=O", "note": "(stereo unspecified)", "Potency": "inconclusive: 23.8 µM [inhibitor, single point]"}, {"smiles": "O=c1nc2ccccc2c(NS(=O)(=O)c2ccccc2)n1-c1ccccc1", "Potency": "inconclusive: 33.6 µM [inhibitor, single point]"}, {"smiles": "O=C(O)c1ccccc1NS(=O)(=O)c1cccc(-n2sc3ccccc3c2=O)c1", "Potency": "active: 3.36 µM"}, {"smiles": "COc1ccc(NC(=O)c2ccc(Br)c(S(=O)(=O)N3CCOCC3)c2)cc1", "Potency": "inconclusive: 26.7 µM [inhibitor, partial curve]"}, {"smiles": "Clc1cccc(Cl)c1CNc1ccc(N2CCCC2)cc1", "Potency": "inconclusive: 23.8 µM [inhibitor, partial curve]"}, {"smiles": "CC(C)(C)S(=O)N1Cc2cc(C(=O)N3CCOCC3)nc(-c3cccc(Br)c3)c2[C@H]1CCO", "note": "(stereo partly specified)", "Potency": "inconclusive: 26.7 µM [inhibitor, single point]"}, {"smiles": "Cc1ccc2cc(CN(C(=O)c3cccs3)c3ccccc3)c(=O)[nH]c2c1", "Potency": "inconclusive: 37.7 µM [inhibitor, single point]"}, {"smiles": "CC1(C)C=C2[C@H]3CC[C@@H]4[C@@]5(C)CCC(=O)C(C)(C)[C@@H]5CC[C@@]4(C)[C@]3(C)CC[C@@]2(C(=O)O)CC1", "Potency": "inconclusive: 33.6 µM [inhibitor, single point]"}, {"smiles": "COc1ccc2[nH]c(=O)c(CN(C(=O)c3cccnc3)c3cccc(C)c3)cc2c1", "Potency": "active: 23.8 µM"}, {"smiles": "CC#CCCC(=O)N1C=Cc2ccccc2C1C#N", "note": "(stereo unspecified)", "Potency": "active: 11.9 µM"}, {"smiles": "Cc1c(C=O)c(Cl)n(C)c(=O)c1C#N", "Potency": "inconclusive: 29.9 µM [inhibitor, partial curve]"}, {"smiles": "Cn1c(SCC(=O)c2ccc3c(c2)OCO3)nnc1C1COc2ccccc2O1", "note": "(stereo unspecified)", "Potency": "inconclusive: 6.7 µM [inhibitor, partial curve]"}, {"smiles": "Cc1cccc(NC(=O)CSc2nc3ccccc3nc2N2CCCC2)c1", "Potency": "inconclusive: 33.6 µM [inhibitor, single point]"}, {"smiles": "C=C(C)C(=O)Nc1cccc(C2=NOC3(C2)C[C@@H](C(N)=O)N(C(=O)/C(C)=C/C)C3)c1", "note": "(stereo partly specified)", "Potency": "inconclusive: 16.8 µM [inhibitor, partial curve]"}, {"smiles": "C=CS(=O)(=O)N(Cc1ccc(Cl)c(Cl)c1)C[C@@H](O)CO", "max response, negative = inhibition": "inactive: -8.6%"}, {"smiles": "COC(=O)c1ccc(NC(=O)c2c(Br)cnn2C)cc1", "Potency": "active: 23.8 µM"}, {"smiles": "COc1ccc(-n2nnc3c(SC(C(C)=O)C(=O)N(C)C)ncnc32)cc1", "note": "(stereo unspecified)", "Potency": "active: 23.8 µM"}, {"smiles": "O=C1C(Cc2ccccc2)Nc2ncnc(N3CCN(c4ccccc4)CC3)c2N1Cc1ccccc1", "note": "(stereo unspecified)", "Potency": "inconclusive: 47.4 µM [inhibitor, partial curve]"}]}]}
